From paper doi:10.1101/2024.10.21.619419 (bioRxiv, 2024)
The exact form of at least one protein or probe is not confirmed.

Molecular target: Bxb1 integrase (WT) (Mycobacteriophage Bxb1) (UniProt Q9B086)
Test: EMSA
Settings: residues 2-500

“GTGTAGCGTCGCTACGCGCCATTGTCAGCACAAGAGTGGTTTGTCTGGTCAACCACCGCGGTCTCCGTCGTCAGGATCATCCGGTCGCTATCTAGCGAGTTCGCGCGCTCTGTG (double strand) [Bxb1 attR (115 bp)]” was tested. Which Kd did it give?
The Kd was 3 nM.
